Results reported in PubChem BioAssay AID1508600 (Functional Genomics Laboratory (NCATS/FGL), 2020).
In all, about 53,000 sequences went through this assay and about 3,700 (7%) were called active.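 The calls were made as follows: active = gene knockdowns whose robust z-score for IL-1 alpha signal is at least 2 or at most -2, so actives lie on both sides; inactive = the rest.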 The list shows a part of the results.

assay: Components of the Cytosolic LPS Sensing Pathway: Gene Identification via Genome-wide siRNA Screen; settings: RAW264.7 macrophages, IL-1a HTRF, actives lie on both sides, screened at 100 nM (by protocol), cells primed 5 h with Pam3CSK4 first;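 also: robust z of the log signal after scaling to non-targeting control siRNA wells of the plate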
How it was run: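 Read-out: IL-1a HTRF on supernatant, divided by plate negative-control median ×100, log-transformed and converted to robust z-score. Cells were RAW264.7 given 100 nM siRNA, Pam3CSK4-primed 5 hours, then LipidA-transfected 24 hour.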

Sequence | z-score
GCCUUGGUACCAUAAUGCATT against Synm | inactive: 0.224
GCAUAUCCAAACAUGUGAUTT against Rnase11 | inactive: -0.806
GGCAGAGAUUAGAUCUCAGTT against Tex13a | inactive: 0.146
CCCAAGAGCAAACUAUGAATT against Sult3a1 | inactive: 0.267
CGCAGGAUUGAGUUAAUUATT against Gm11541 | inactive: -0.809
GCACAAUUUCAUACCUUGGTT against Olfr490 | inactive: -1.53
CGGAAAUUGACCUACAAUATT against Gtf3c5 | inactive: 1.18
GGAGCUUCUUGACCUCGUGTT against Frmd4a | inactive: 0.184
GGAUUGAAGCAGGCAGCUUTT against Purb | inactive: -0.787
GGCUACUGAUUAAAUGCUATT against Ermap | inactive: -1.16
GGGCCAAGGAACCUAUUUGTT against Ltbr | inactive: 0.58
GGAAGCCAAAAAGUUUUUATT against Cyp3a44 | inactive: 0.26
CGAGAACCCACUUUUAAAGTT against Olfr701 | inactive: -0.455
GGUCAGGAAACCAUCAUGATT against Siae | inactive: -0.738
ACUAUGGUUGGUUCAAACGTT against Acat2 | inactive: -1.23
GGAUCUGAUAACGUGGACATT against H2-Q2 | inactive: 0.168
GCUAGGAUUGUUCACAAACTT against Spdef | inactive: -0.707
CCAAAUGACAAAAAACCUUTT against Zfp217 | inactive: 0.0484
GCUGAUUCGGCUUAUGAUCTT against Tfdp2 | inactive: 0.181
CCAUUAAUCCCUGGAGCGATT against Guca1a | inactive: 1.01
GGCCUGGAUGGAAAUUUGCTT against Fabp4 | inactive: -0.851
CCUUUCCUUUGUUGAUUUCTT against Olfr887 | inactive: -0.288

Sequence | z-score
CGACAAGAGAGCACAGAGATT against Traf3ip1 | inactive: -1.9
GGAGUUGAGAUCAUGUAGGTT against Mettl6 | inactive: -1.56
CCCUCAAAGUCAUUUCAAATT against Cfap43 | inactive: -1.61
CCCAAAGAUAGAGCUCUGUTT against Sec61a2 | inactive: -1.94
GGCCAAAAACAAGGAGACCTT against Stk10 | inactive: 0.0817
GGUGUUCCUAUAAAAGUAUTT against Tfb2m | inactive: 0.597
GUCUUUCUGUCUUGUCUUGTT against Fbxo21 | inactive: -1.19
GGUAGAAAAGAAUAUUGAGTT against Cspp1 | inactive: 1.89
GGCGAUUAAACUAUACAUUTT against Rrm2 | inactive: 0.0358
CGUCUUUCCUCACUAGCAATT against Cdc42ep4 | inactive: 0.562
GGCUGCCUCGAAAUUACAATT against Lamb3 | inactive: -0.675
GCAGAGUUUGCAUGCUGUUTT against Duxbl1 | inactive: -1.24
AGGACUAGGGAUCCUAAUUTT against Ubl5 | inactive: -0.74
GGGAUUGCUACAGAGACUCTT against Grk6 | inactive: 0.176
GGUCCAUACUCCUAAAGAATT against Mpzl1 | inactive: -0.727
GGUCUUCUUUAGUUCAGAATT against Dbndd1 | inactive: -0.0862
GGAACAAAAGAAGAAUACCTT against Pkhd1 | inactive: 0.48
GGUUUCUUAUCAAACUCCATT against Farp2 | inactive: -0.598
CGAAAUCAGAACCUGGGAATT against Hacd3 | active: 2.73
GGAUUGAGUCACUUAUAGATT against Cul4a | inactive: -0.0102
GGUGACAAUGACCUUAUAGTT against Adsl | inactive: -0.311
UUUACUCUCAUGGUAACCUTT against Olfr798 | inactive: -0.386

Sequence | z-score
GGCAGCAACUUGAUAAUAATT against Tmem176a | inactive: -1.81
GGUUCUAAUAAAAAUCGGUTT against Pcdhb1 | inactive: 0.659
GGAUGGACAACUGAAGUCATT against Dnajb2 | inactive: -1.25
GACCAAAGCACUGACUAUGTT against Lyz2 | inactive: -0.184
CCUACAUAGCGACAUCCUUTT against Car12 | inactive: 1.02
GGCUCAAAUGGUCACCAAUTT against Ms4a13 | inactive: -1.25
GGCAGGCAGAAAGCUUUGUTT against Olfr1054 | inactive: 1.8
GGUACCGUCAGUUGUCCUATT against Rnf4 | inactive: -1.86
GGUGCUGGUGGAUGAACUATT against Nags | inactive: -1.5
GGAGAUGAUUGACCGGCUATT against Epc1 | inactive: -1.03
GGAGGGAAAGAUCAUUACATT against Kirrel2 | inactive: 1.47
GCAUUUGUGGCCUAUGCUCTT against Naprt | active: -2.16
GGACGUGCUUCCGAAUAGUTT against Scn1a | inactive: 0.317
GCUCCUGUACAGUUCAAACTT against Mrpl17 | inactive: 0.0768
UAUUGUGGACCCAACAGGATT against Olfr1337 | inactive: 1.37
CCUUAUGUGCCCUUUCAUCTT against AU018091 | inactive: -1.08
GAAUCUAGAAAAGUGGUGCTT against Lce1d | inactive: -0.943
GCCGCACCGAAAGUGAAAUTT against Copz2 | inactive: -0.391
GGUUGGACAACAUAAUAAGTT against Riox2 | inactive: 1.17
GGCCUUGAAGUCUGAAUUCTT against Fgd2 | inactive: -0.936
GGUGGGAAGUAUUUAUUUATT against Grasp | inactive: 0.655
GGUCAGAAACUUCACCAAGTT against Ccr6 | inactive: -1.12

Given in markdown: entries from further up

| Sequence | z-score |
| --- | --- |
| GGAGAUGAUUGACCGGCUATT against Epc1 | inactive: -1.03 |
| GCAUUUGUGGCCUAUGCUCTT against Naprt | active: -2.16 |
| CCUUAUGUGCCCUUUCAUCTT against AU018091 | inactive: -1.08 |

Later entries.

Sequence | z-score
GGUAUUGAUCAAUAUGACATT against Ddx46 | inactive: -1.13
CGAGGAGUGGUAUUUUUACTT against Slc34a1 | inactive: 0.0248
GGCUAAGUGUGGAAUAGUUTT against 4933427D06Rik | inactive: 1.02
GCUAGAGUACAGCAAGCUGTT against Aifm3 | inactive: 1.21
GGUUCAGCACAAAGAAACATT against Rapgef5 | inactive: -1.43
GGAUCUUGGCUAAAGAGGGTT against Slc25a25 | inactive: 0.0129
GGUGCCUUUCUGCUUUUGATT against Spink12 | inactive: 1.87
GGAGAACACUUUAAUGCUGTT against Ovch2 | inactive: 0.00992
GGUAUCAGGUACCAACGACTT against Cpne6 | inactive: 0.768
GGACGGAAUCAGGAACAUUTT against Echdc3 | inactive: -0.358
GCCUCAAUUCCUCUACGCUTT against Sytl1 | inactive: -1.34
GGAUGGAUCAUCUUUUCUATT against Nme2 | inactive: 1.34
GGGACUCAACGCACUUUCUTT against Ambn | inactive: -0.995
GGAAGCAGUAUCUCGGAAATT against Slc4a1ap | inactive: 1.08
CCAGUGUAGAGCACAAAUCTT against Ahr | active: 2.51
GGUGUUACUAAUGUUUAUCTT against Cd209e | inactive: 0.859
GGUUCCUGGAUGGUUCCUATT against Vtcn1 | inactive: 1.45
GGGAAGAGAAGUUAAAGGATT against Wnt8a | inactive: 0.252
GGCCUUCUCUGUCUUCUACTT against Olfr279 | inactive: -0.562
CCAGAAUCGAUAGGCAGUCTT against Capn10 | inactive: -0.315
GGAAGGUUUGUUUUGUUUGTT against Slc24a3 | inactive: 0.0291
GGUGACACAGCUGCUUUUCTT against Dact2 | inactive: 0.107

Two entries picked at random from the list so far:
Sequence | z-score
CCAGUGUAGAGCACAAAUCTT against Ahr | active: 2.51
GGUGUUACUAAUGUUUAUCTT against Cd209e | inactive: 0.859

(cont.)

Sequence | z-score
CCCAUCCUUCCAACCAGAATT against Coro2a | inactive: -0.524
GCCUAGAUGACCUCAAUGUTT against Fam160b1 | inactive: 0.131
GGCCCAGAGAGAAAAAUACTT against Acadvl | inactive: -0.633
UCCACUUCACUAAUCCUGUTT against Vmn2r43 | active: -2.52
GGUUCCAUCUUCUCAGGACTT against Olfr395 | inactive: 1.01
CCUUCAAGCUGUGCUUUUUTT against Olfr820 | inactive: -0.0602
GGAAUGUCCAAAGCCUUCATT against Olfr907 | inactive: 0.289
GGGAACAUGUUUUACUCUUTT against Zfp521 | inactive: 1.63
GGUUCUCUGUACAAGAGAUTT against Smarcb1 | inactive: -0.41
CCCUGAGCGAUUCAAUCUGTT against Trim27 | inactive: -1.27
GCAUCGUCCUCCAAAGAUUTT against Sf3b1 | active: -3.01
CCUGAAAACUCGUGAAGGGTT against Gnb1 | inactive: -0.825
CGUGUACUCCUGGUUUCCCTT against Hcfc2 | inactive: 0.369
GGAUCAAGGAGCAAGUGGUTT against B4galnt1 | inactive: -1.7
CCAUAGACUGAAUCAACUATT against Rgs14 | inactive: 1.56
CCUUCAACCUUCGAGAUACTT against Kcnh2 | inactive: -0.417
GGUUACUAGAUGUAUUUUGTT against Ppp3cb | inactive: -0.785
GGACGGAGAGUUUAUUUUUTT against Ptgfrn | inactive: -0.468
GGAAGUUCAAGAAGAUCAUTT against Angel2 | inactive: -0.624
